From the supplement of paper PMC7661543
The effect of the compound repeats well; differences between the knockouts mostly do not.

Test system: HCC-38
Test: relative cell number vs DMSO control (72 h) (% of DMSO); higher = less growth inhibition (more cells)
Method: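 QMAP-Seq: a pool of 5 breast cancer cell lines (ZR-75-1, SKBR3, HCC-38, MDA-MB-231, BT-20), each carrying 12 doxycycline-inducible Cas9 sgRNA perturbations (11 knockouts plus non-targeting sgNT), was treated with compounds for 72 h at four 10-fold doses (10 nM-10 uM or 1 nM-1 uM range). Barcodes were amplified and sequenced, and cell number was interpolated from 293T spike-in standard curves. The result is expressed as % of the median of DMSO wells. Two biological replicates.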

CCOc1ccccc1-n1c(C(C)N2CCN(C(=O)COc3ccc(Cl)cc3)CC2)nc2ccccc2c1=O (configuration not stated) [Erastin]
Conditions | relative cell number
sgRNA knockout: sgATF3, 10 nM | 93.8
sgRNA knockout: sgATF3, 100 nM | 101.9
sgRNA knockout: sgATF3, 1000 nM | 101
sgRNA knockout: sgATF3, 10000 nM | 66.9
sgRNA knockout: sgATF4, 10 nM | 87.97
sgRNA knockout: sgATF4, 100 nM | 101
sgRNA knockout: sgATF4, 1000 nM | 88.2
sgRNA knockout: sgATF4, 10000 nM | 37.1
sgRNA knockout: sgATF6, 10 nM | 95.8
sgRNA knockout: sgATF6, 100 nM | 113
sgRNA knockout: sgATF6, 1000 nM | 106
sgRNA knockout: sgATF6, 10000 nM | 61.9
sgRNA knockout: sgATG7, 10 nM | 93.2
sgRNA knockout: sgATG7, 100 nM | 100
sgRNA knockout: sgATG7, 1000 nM | 95.6
sgRNA knockout: sgATG7, 10000 nM | 69.1
sgRNA knockout: sgERN1, 10 nM | 83.6
sgRNA knockout: sgERN1, 100 nM | 113
sgRNA knockout: sgERN1, 1000 nM | 96.7
sgRNA knockout: sgERN1, 10000 nM | 58.4
sgRNA knockout: sgHSF1, 10 nM | 97
sgRNA knockout: sgHSF1, 100 nM | 94.6
sgRNA knockout: sgHSF1, 1000 nM | 105
sgRNA knockout: sgHSF1, 10000 nM | 69.5
sgRNA knockout: sgHSF2, 10 nM | 103
sgRNA knockout: sgHSF2, 100 nM | 106
sgRNA knockout: sgHSF2, 1000 nM | 100
sgRNA knockout: sgHSF2, 10000 nM | 64.8
sgRNA knockout: sgKEAP1, 10 nM | 115
sgRNA knockout: sgKEAP1, 100 nM | 93.3
sgRNA knockout: sgKEAP1, 1000 nM | 101
sgRNA knockout: sgKEAP1, 10000 nM | 95
sgRNA knockout: sgNFE2L2, 10 nM | 85.4
sgRNA knockout: sgNFE2L2, 100 nM | 91.7
sgRNA knockout: sgNFE2L2, 1000 nM | 92.4
sgRNA knockout: sgNFE2L2, 10000 nM | 57
sgRNA knockout: sgSLC35F2, 10 nM | 96.207
sgRNA knockout: sgSLC35F2, 100 nM | 99.3
sgRNA knockout: sgSLC35F2, 1000 nM | 92.8
sgRNA knockout: sgSLC35F2, 10000 nM | 56.8
sgRNA knockout: sgXBP1, 10 nM | 84.5
sgRNA knockout: sgXBP1, 100 nM | 111
sgRNA knockout: sgXBP1, 1000 nM | 94
sgRNA knockout: sgXBP1, 10000 nM | 63.6

C=C1C[C@@H]2[C@H](CC[C@]3(C)C(=O)CC[C@@H]23)[C@@]2(C)C=CC(=O)C=C12 [Exemestane]
Conditions | relative cell number
sgRNA knockout: sgATF3, 10 nM | 91.7
sgRNA knockout: sgATF3, 100 nM | 94.2
sgRNA knockout: sgATF3, 1000 nM | 103
sgRNA knockout: sgATF3, 10000 nM | 112
sgRNA knockout: sgATF4, 10 nM | 106
sgRNA knockout: sgATF4, 100 nM | 84.9
sgRNA knockout: sgATF4, 1000 nM | 107
sgRNA knockout: sgATF4, 10000 nM | 108
sgRNA knockout: sgATF6, 10 nM | 116
sgRNA knockout: sgATF6, 100 nM | 98.8
sgRNA knockout: sgATF6, 1000 nM | 116.6
sgRNA knockout: sgATF6, 10000 nM | 112
sgRNA knockout: sgATG7, 10 nM | 103
sgRNA knockout: sgATG7, 100 nM | 87.6
sgRNA knockout: sgATG7, 1000 nM | 112
sgRNA knockout: sgATG7, 10000 nM | 114
sgRNA knockout: sgERN1, 10 nM | 109
sgRNA knockout: sgERN1, 100 nM | 94
sgRNA knockout: sgERN1, 1000 nM | 119
sgRNA knockout: sgERN1, 10000 nM | 116
sgRNA knockout: sgHSF1, 10 nM | 110
sgRNA knockout: sgHSF1, 100 nM | 87.6
sgRNA knockout: sgHSF1, 1000 nM | 132
sgRNA knockout: sgHSF1, 10000 nM | 115
sgRNA knockout: sgHSF2, 10 nM | 111
sgRNA knockout: sgHSF2, 100 nM | 104
sgRNA knockout: sgHSF2, 1000 nM | 120
sgRNA knockout: sgHSF2, 10000 nM | 127
sgRNA knockout: sgKEAP1, 10 nM | 118
sgRNA knockout: sgKEAP1, 100 nM | 88.3
sgRNA knockout: sgKEAP1, 1000 nM | 116
sgRNA knockout: sgKEAP1, 10000 nM | 116
sgRNA knockout: sgNFE2L2, 10 nM | 96.6
sgRNA knockout: sgNFE2L2, 100 nM | 87.7
sgRNA knockout: sgNFE2L2, 1000 nM | 108
sgRNA knockout: sgNFE2L2, 10000 nM | 102
sgRNA knockout: sgSLC35F2, 10 nM | 96.9
sgRNA knockout: sgSLC35F2, 100 nM | 94.3
sgRNA knockout: sgSLC35F2, 1000 nM | 116
sgRNA knockout: sgSLC35F2, 10000 nM | 113
sgRNA knockout: sgXBP1, 10 nM | 105
sgRNA knockout: sgXBP1, 100 nM | 89
sgRNA knockout: sgXBP1, 1000 nM | 119
sgRNA knockout: sgXBP1, 10000 nM | 104

CC(C)(C)OC(=O)CN(Cc1ccc(Cl)cc1)Cc1ccc([N+](=O)[O-])s1 [GSK4112]
Conditions | relative cell number
sgRNA knockout: sgATF3, 10 nM | 85.56
sgRNA knockout: sgATF3, 100 nM | 98.4
sgRNA knockout: sgATF3, 1000 nM | 96.3
sgRNA knockout: sgATF3, 10000 nM | 95.8
sgRNA knockout: sgATF4, 10 nM | 80.7
sgRNA knockout: sgATF4, 100 nM | 92.1
sgRNA knockout: sgATF4, 1000 nM | 101
sgRNA knockout: sgATF4, 10000 nM | 94.1
sgRNA knockout: sgATF6, 10 nM | 89.4
sgRNA knockout: sgATF6, 100 nM | 106
sgRNA knockout: sgATF6, 1000 nM | 97.78
sgRNA knockout: sgATF6, 10000 nM | 88.2
sgRNA knockout: sgATG7, 10 nM | 87.7
sgRNA knockout: sgATG7, 100 nM | 93.4
sgRNA knockout: sgATG7, 1000 nM | 105
sgRNA knockout: sgATG7, 10000 nM | 96.6
sgRNA knockout: sgERN1, 10 nM | 77.6
sgRNA knockout: sgERN1, 100 nM | 93
sgRNA knockout: sgERN1, 1000 nM | 92.1
sgRNA knockout: sgERN1, 10000 nM | 98.2
sgRNA knockout: sgHSF1, 10 nM | 88.4
sgRNA knockout: sgHSF1, 100 nM | 110
sgRNA knockout: sgHSF1, 1000 nM | 111.3
sgRNA knockout: sgHSF1, 10000 nM | 95.6
sgRNA knockout: sgHSF2, 10 nM | 86.1
sgRNA knockout: sgHSF2, 100 nM | 111
sgRNA knockout: sgHSF2, 1000 nM | 106
sgRNA knockout: sgHSF2, 10000 nM | 101
sgRNA knockout: sgKEAP1, 10 nM | 97.6
sgRNA knockout: sgKEAP1, 100 nM | 126
sgRNA knockout: sgKEAP1, 1000 nM | 110
sgRNA knockout: sgKEAP1, 10000 nM | 111
sgRNA knockout: sgNFE2L2, 10 nM | 84.4
sgRNA knockout: sgNFE2L2, 100 nM | 90.9
sgRNA knockout: sgNFE2L2, 1000 nM | 92.5
sgRNA knockout: sgNFE2L2, 10000 nM | 91.9
sgRNA knockout: sgSLC35F2, 10 nM | 76.6
sgRNA knockout: sgSLC35F2, 100 nM | 99.5
sgRNA knockout: sgSLC35F2, 1000 nM | 101
sgRNA knockout: sgSLC35F2, 10000 nM | 98.4
sgRNA knockout: sgXBP1, 10 nM | 78.1
sgRNA knockout: sgXBP1, 100 nM | 97.3
sgRNA knockout: sgXBP1, 1000 nM | 98.2
sgRNA knockout: sgXBP1, 10000 nM | 101
